In PMC5670179, “Folding of a bacterial integral outer membrane protein is initiated in the periplasm” (Nature Communications, 2017):

Columns and labels:
[1] = target: FLAG-UpaGΔ2 (E. coli O6:H1 strain CFT073); assay: SDS- and heat-resistant oligomers on SDS-PAGE after pulse-chase labelling and immunoprecipitation; cells grown in M9 minimal medium at 37 °C, pTrc99a derivatives; TCA precipitation, immunoprecipitation with anti-HA or anti-UpaG antiserum, samples heated to 99 °C for 5 min, 8-16% Tris-glycine gels
[2] = target: His10-UpaGΔ2 (E. coli O6:H1 strain CFT073); assay: as above

Question: How did the binding [1] turn out when “FLAG-UpaGΔ2 (from UniProt A0A0H2VCA1 1609-1778) (domain or fragment)” was run?
Answer: Its binding is “binds”.

Question: “His10-UpaGΔ2 (from UniProt A0A0H2VCA1 1609-1778) (domain or fragment)” was tested. Which binding [2] did it give?
Answer: The binding was “binds”.

Results are given in words; binding and its absence hold for the method and conditions named. Binding calls can cover weak binding; strength is not graded here.
